From the supplement of paper PMC6078165
Values are relative to the signal before dosing, not to a vehicle control; the signal also falls without drug.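 Fibroblast labels name human fibroblasts: mostly primary ones from tissues such as uterus (C12385, HUF), lung (H6013), bone (Hs27A), adrenal (HADF) and skin (WS1), plus mammary HMF and breast cancer-associated Hs343T. The cancer cells are basal-like or mesenchymal-like triple-negative breast cancer lines. The paper calls a changed response a hit when it shifts by more than 3x the replicate standard deviation. The tissue of the other fibroblasts is not given here.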

Tested on: BT20
Assay: relative JC-1 red fluorescence (viability) vs pre-drug, coculture with fibroblast (fraction); higher = more viable cancer cells
Procedure: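 JC-1 labelled TNBC cells cocultured 1:1 (1,500 cells each) with CellTrace Violet stained primary or stromal fibroblasts in 384-well plates in FluoroBrite medium, treated with one of 42 anticancer drugs at 0.1, 1, 10 or 100 uM. JC-1 red fluorescence (mitochondrial integrity in cancer cells only) was read by plate reader every 8 h for 72 h. Values are normalised to each well's pre-drug value. The stock of one drug was tenfold lower, so its dose labels may be too high.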

O=C1c2c(O)ccc(O)c2C(=O)c2c(NCCNCCO)ccc(NCCNCCO)c21 [Mitoxantrone]
relative JC-1 red fluorescence
Conditions	8 h	16 h	24 h	32 h	40 h	48 h	56 h	64 h	72 h
0.1 µM, coculture fibroblast: C12385	0.8022	0.753	0.6698	0.592	0.549	0.529	0.517	0.502	0.494
0.1 µM, coculture fibroblast: H6013	0.9151	0.826	0.757	0.7	0.643	0.61	0.597	0.581	0.576
0.1 µM, coculture fibroblast: H6019	0.795	0.744	0.699	0.643	0.608	0.606	0.589	0.577	0.575
0.1 µM, coculture fibroblast: H6076	0.828	0.869	0.816	0.81	0.785	0.783	0.792	0.8	0.792
0.1 µM, coculture fibroblast: H6231	0.921	0.912	0.794	0.712	0.668	0.613	0.593	0.571	0.548
0.1 µM, coculture fibroblast: HADF	0.964	0.872	0.786	0.728	0.671	0.618	0.605	0.585	0.55
0.1 µM, coculture fibroblast: HCFa	0.9	0.813	0.7373	0.677	0.618	0.563	0.537	0.515	0.471
0.1 µM, coculture fibroblast: HCPF	0.98276	0.861	0.786	0.745	0.7043	0.6874	0.646	0.631	0.599
0.1 µM, coculture fibroblast: HHSteC	0.8684	0.804	0.768	0.707	0.659	0.606	0.59	0.567	0.539
0.1 µM, coculture fibroblast: HMF	0.986	0.878	0.755	0.697	0.638	0.599	0.568	0.542	0.517
0.1 µM, coculture fibroblast: HPFa	0.87751	0.8058	0.834	0.745	0.709	0.657	0.655	0.631	0.602
0.1 µM, coculture fibroblast: HUF	0.8429	0.776	0.799	0.75	0.71	0.6771	0.675	0.664	0.655
0.1 µM, coculture fibroblast: Hs5	0.933	0.888	0.842	0.8006	0.7824	0.768	0.766	0.742	0.735
0.1 µM, coculture fibroblast: Hs27A	0.82744	0.964	0.936	0.898	0.869	0.842	0.854	0.865	0.846
0.1 µM, coculture fibroblast: Hs343T	0.971	0.822	0.7273	0.66	0.616	0.576	0.554	0.549	0.518
0.1 µM, coculture fibroblast: WS1	0.803	0.741	0.67	0.601	0.558	0.538	0.529	0.512	0.507
1 µM, coculture fibroblast: C12385	0.472	0.47	0.541	0.534	0.4883	0.482	0.471	0.461	0.449
1 µM, coculture fibroblast: H6013	0.612	0.657	0.788	0.713	0.677	0.659	0.6622	0.63	0.602
1 µM, coculture fibroblast: H6019	0.466	0.423	0.473	0.454	0.435	0.443	0.441	0.444	0.439
1 µM, coculture fibroblast: H6076	0.788	0.7945	0.877	0.885	0.885	0.854	0.821	0.796	0.757
1 µM, coculture fibroblast: H6231	0.809	0.708	0.815	0.773	0.767	0.732	0.71	0.676	0.634
1 µM, coculture fibroblast: HADF	0.646	0.688	0.801	0.743	0.74	0.697	0.693	0.669	0.622
1 µM, coculture fibroblast: HCFa	0.629	0.665	0.765	0.698	0.706	0.698	0.723	0.704	0.673
1 µM, coculture fibroblast: HCPF	0.748	0.744	0.808	0.821	0.813	0.785	0.754	0.734	0.688
1 µM, coculture fibroblast: HHSteC	0.617	0.722	0.867	0.7881	0.7688	0.7374	0.737	0.7189	0.671
1 µM, coculture fibroblast: HMF	0.774	0.771	0.788	0.748	0.722	0.681	0.648	0.614	0.576
1 µM, coculture fibroblast: HPFa	0.654	0.75	0.914	0.89	0.837	0.84	0.761	0.853	0.842
1 µM, coculture fibroblast: HUF	0.534	0.538	0.604	0.5624	0.5276	0.507	0.5	0.4923	0.4837
1 µM, coculture fibroblast: Hs5	0.786	0.805	0.853	0.831	0.811	0.778	0.754	0.725	0.691
1 µM, coculture fibroblast: Hs27A	0.738	0.744	0.922	0.868	0.8486	0.788	0.883	0.767	0.731
1 µM, coculture fibroblast: Hs343T	0.783	0.721	0.753	0.707	0.678	0.632	0.616	0.59	0.56
1 µM, coculture fibroblast: WS1	0.466	0.416	0.46	0.43219	0.3938	0.38	0.363	0.346	0.334
10 µM, coculture fibroblast: C12385	0.288	0.402	0.468	0.47	0.567	0.518	0.463	0.405	0.336
10 µM, coculture fibroblast: H6013	0.793	0.788	0.858	0.787	0.695	0.634	0.683	0.633	0.517
10 µM, coculture fibroblast: H6019	0.363	0.614	0.724	0.701	0.615	0.587	0.532	0.472	0.415
10 µM, coculture fibroblast: H6076	0.785	0.839	0.894	0.817	0.866	0.795	0.8297	0.752	0.582
10 µM, coculture fibroblast: H6231	0.933	0.843	0.915	0.866	0.9858	0.797	0.673	0.537	0.409
10 µM, coculture fibroblast: HADF	0.775	0.902	0.776	0.848	0.804	0.893	0.877	0.749	0.771
10 µM, coculture fibroblast: HCFa	0.664	0.8565	0.789	0.762	0.892	0.83	0.754	0.697	0.675
10 µM, coculture fibroblast: HCPF	0.7599	0.968	0.828	0.874	0.884	0.84	0.752	0.639	0.492
10 µM, coculture fibroblast: HHSteC	0.775	0.841	0.916	0.813	0.737	0.691	0.741	0.645	0.523
10 µM, coculture fibroblast: HMF	0.772	0.858	0.83	0.89	0.835	0.795	0.923	0.722	0.5979
10 µM, coculture fibroblast: HPFa	0.759	0.715	0.764	0.747	0.737	0.684	0.655	0.616	0.499
10 µM, coculture fibroblast: HUF	0.461	0.543	0.608	0.573	0.54	0.504	0.49	0.444	0.405
10 µM, coculture fibroblast: Hs5	0.9341	0.746	0.7014	0.766	0.779	0.746	0.869	0.786	0.637
10 µM, coculture fibroblast: Hs27A	0.882	0.703	0.878	0.912	0.867	0.754	0.878	0.816	0.862
10 µM, coculture fibroblast: Hs343T	0.691	0.893	0.752	0.793	0.89	0.978	0.809	0.695	0.547
10 µM, coculture fibroblast: WS1	0.304	0.392	0.532	0.489	0.381	0.33	0.273	0.2	0.147
